Values from PubChem BioAssay AID1224826 (NIAID, 2016)
Screen: 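Genes that change LPS-induced Tnf promoter activity in mouse macrophages when knocked down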 (primary screen). System: RAW264.7 G9 macrophages from mouse bearing reporters for p65 (GFP) and the Tnf promoter (mCherry). Knock-down reagent: siRNA pool against mouse genes, 100 nM. Time to read-out: 16 h of LPS stimulation, after 2 days of siRNA transfection. Conditions: bacterial lipopolysaccharide (Salmonella minnesota R595), 10 ng/ml. Read-out: 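Imaged Tnf reporter mCherry in nuclei, minus background, normalised per plate to the median and expressed as robust z-scores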. Reading the numbers: Tnf reporter robust z-score: higher = stronger Tnf promoter reporter signal after LPS. Hit rule: 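a well counts as active at a score of -1.3 or below (Tlr4 knock-down control median) or above 3 (raised signal); controls and wells holding fewer than 50 cells are excluded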. Calls: active = Tnf reporter clearly lowered or raised; inactive = no clear change in Tnf reporter.
This is an unselected part of about 17,000 reagents tested. About 1,110 of them (6.6%) were called active. 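Active means lowered or raised reporter signal; replicate intensities are raw and not normalised per plate.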 Further read-outs or replicates are left out here.

{"Target gene":"Rbm14 (RNA binding motif protein 14)","Tnf reporter robust z-score":-0.43,"fewer than 50 cells in well":"enough cells in well","Outcome":"inactive"}
{"Target gene":"BCLP2","Tnf reporter robust z-score":1.93,"fewer than 50 cells in well":"enough cells in well","Outcome":"inactive"}
{"Target gene":"Ppfia1","Tnf reporter robust z-score":0.54,"fewer than 50 cells in well":"enough cells in well","Outcome":"inactive"}
{"Target gene":"Zbtb41 (zinc finger and BTB domain containing 41)","Tnf reporter robust z-score":0.53,"fewer than 50 cells in well":"enough cells in well","Outcome":"inactive"}
{"Target gene":"Or4c122 (olfactory receptor family 4 subfamily C member 122)","Tnf reporter robust z-score":0.24,"fewer than 50 cells in well":"enough cells in well","Outcome":"inactive"}

Next part (2 carried over from the part before).
{"Target gene":"Zbtb41 (zinc finger and BTB domain containing 41)","Tnf reporter robust z-score":0.53,"fewer than 50 cells in well":"enough cells in well","Outcome":"inactive"}
{"Target gene":"Or4c122 (olfactory receptor family 4 subfamily C member 122)","Tnf reporter robust z-score":0.24,"fewer than 50 cells in well":"enough cells in well","Outcome":"inactive"}
{"Target gene":"Alg5 (ALG5 dolichyl-phosphate beta-glucosyltransferase)","Tnf reporter robust z-score":0.37,"fewer than 50 cells in well":"enough cells in well","Outcome":"inactive"}
{"Target gene":"Rusf1 (RUS family member 1)","Tnf reporter robust z-score":-0.48,"fewer than 50 cells in well":"enough cells in well","Outcome":"inactive"}
{"Target gene":"Tssk1 (testis-specific serine kinase 1)","fewer than 50 cells in well":"fewer than 50 cells per well; well left out of calls","Outcome":"inactive"}
{"Target gene":"Ndn (necdin, MAGE family member)","Tnf reporter robust z-score":0.1,"fewer than 50 cells in well":"enough cells in well","Outcome":"inactive"}
{"Target gene":"Rpl10a (ribosomal protein L10A)","Tnf reporter robust z-score":-0.15,"fewer than 50 cells in well":"enough cells in well","Outcome":"inactive"}
{"Target gene":"Dbndd2 (dysbindin domain containing 2)","Tnf reporter robust z-score":1.48,"fewer than 50 cells in well":"enough cells in well","Outcome":"inactive"}
{"Target gene":"Ciz1 (CDKN1A interacting zinc finger protein 1)","Tnf reporter robust z-score":-1.2,"fewer than 50 cells in well":"enough cells in well","Outcome":"inactive"}
